Data on one substance can be found in paper doi:10.1101/825828.

By UniProt entry, the sequences of proteins in these tests, tags left out.
UniProt O60238: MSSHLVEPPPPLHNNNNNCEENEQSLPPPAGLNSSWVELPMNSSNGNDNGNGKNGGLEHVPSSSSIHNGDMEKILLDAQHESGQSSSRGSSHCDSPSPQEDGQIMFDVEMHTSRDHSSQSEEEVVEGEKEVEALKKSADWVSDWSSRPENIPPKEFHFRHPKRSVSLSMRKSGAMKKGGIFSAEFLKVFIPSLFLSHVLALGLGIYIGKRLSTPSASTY
UniProt P31946: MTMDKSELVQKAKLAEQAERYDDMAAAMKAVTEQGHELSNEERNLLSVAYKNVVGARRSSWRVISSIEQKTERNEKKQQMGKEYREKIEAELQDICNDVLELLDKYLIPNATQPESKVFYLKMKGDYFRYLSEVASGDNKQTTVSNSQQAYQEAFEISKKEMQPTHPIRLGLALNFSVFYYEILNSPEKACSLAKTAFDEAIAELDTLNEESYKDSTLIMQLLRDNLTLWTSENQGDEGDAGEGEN

No constants are given. Whether binding was seen depends on the method and setting. Binding seen in cells or lysates may run through a third protein. Some entries that bind do so weakly or less than the wild type.

For this assay, the target named is Myc-tagged Nix (UniProt O60238). Nature of the assay: co-IP.

As for “HA-tagged 14-3-3ß (from UniProt P31946 1-246)”, the binding result was “binds”.
